Results: the supplement of paper PMC12819154, “High-throughput peptide-centric local stability assay extends protein–ligand identification to membrane proteins, tissues and bacteria” (Nature Structural & Molecular Biology, 2025)
This is one part of the list. Small differences around the control level are noise.

Sequences of proteins named here, by UniProt entry; tags and fusion partners are left off. A change or cut given only in a name is not applied to a line headed by its entry.
UniProt Q8NB14: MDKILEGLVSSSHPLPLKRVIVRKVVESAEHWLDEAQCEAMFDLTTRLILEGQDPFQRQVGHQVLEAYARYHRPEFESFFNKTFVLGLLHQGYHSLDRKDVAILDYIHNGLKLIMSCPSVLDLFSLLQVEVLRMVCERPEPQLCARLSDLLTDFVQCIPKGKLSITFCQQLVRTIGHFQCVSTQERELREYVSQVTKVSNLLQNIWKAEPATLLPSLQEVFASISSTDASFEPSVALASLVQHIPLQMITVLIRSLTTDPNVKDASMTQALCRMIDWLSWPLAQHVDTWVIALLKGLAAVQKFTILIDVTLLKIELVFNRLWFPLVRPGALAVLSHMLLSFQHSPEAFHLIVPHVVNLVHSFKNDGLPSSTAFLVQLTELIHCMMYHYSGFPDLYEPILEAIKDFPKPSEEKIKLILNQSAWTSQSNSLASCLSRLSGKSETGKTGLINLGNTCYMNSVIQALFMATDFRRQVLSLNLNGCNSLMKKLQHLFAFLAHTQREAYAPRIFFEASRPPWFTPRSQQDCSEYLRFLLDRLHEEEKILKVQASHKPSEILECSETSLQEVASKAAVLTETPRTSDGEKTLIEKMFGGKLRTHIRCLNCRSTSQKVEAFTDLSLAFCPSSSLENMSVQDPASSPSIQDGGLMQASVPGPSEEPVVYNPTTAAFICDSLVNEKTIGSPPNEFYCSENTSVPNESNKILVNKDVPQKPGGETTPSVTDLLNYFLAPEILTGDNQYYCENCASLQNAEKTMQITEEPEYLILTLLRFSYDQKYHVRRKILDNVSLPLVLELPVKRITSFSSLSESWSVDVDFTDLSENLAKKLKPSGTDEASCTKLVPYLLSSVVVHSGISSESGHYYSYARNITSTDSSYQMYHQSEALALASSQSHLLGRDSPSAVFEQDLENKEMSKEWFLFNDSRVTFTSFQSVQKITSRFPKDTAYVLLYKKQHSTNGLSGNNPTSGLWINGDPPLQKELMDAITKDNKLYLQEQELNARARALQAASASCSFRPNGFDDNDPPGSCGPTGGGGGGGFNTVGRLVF
UniProt Q8N4J0: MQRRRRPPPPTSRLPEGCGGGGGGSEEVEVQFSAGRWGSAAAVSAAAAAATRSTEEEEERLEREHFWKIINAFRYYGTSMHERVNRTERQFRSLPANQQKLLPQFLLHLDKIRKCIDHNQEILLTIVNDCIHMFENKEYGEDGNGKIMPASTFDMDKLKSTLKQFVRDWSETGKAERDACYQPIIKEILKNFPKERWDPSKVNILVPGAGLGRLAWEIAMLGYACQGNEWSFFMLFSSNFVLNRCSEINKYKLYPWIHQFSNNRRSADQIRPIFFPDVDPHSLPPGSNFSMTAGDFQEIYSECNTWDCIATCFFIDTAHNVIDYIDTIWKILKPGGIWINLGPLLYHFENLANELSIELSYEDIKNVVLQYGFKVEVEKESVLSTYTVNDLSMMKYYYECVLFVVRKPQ
UniProt Q8N9M5: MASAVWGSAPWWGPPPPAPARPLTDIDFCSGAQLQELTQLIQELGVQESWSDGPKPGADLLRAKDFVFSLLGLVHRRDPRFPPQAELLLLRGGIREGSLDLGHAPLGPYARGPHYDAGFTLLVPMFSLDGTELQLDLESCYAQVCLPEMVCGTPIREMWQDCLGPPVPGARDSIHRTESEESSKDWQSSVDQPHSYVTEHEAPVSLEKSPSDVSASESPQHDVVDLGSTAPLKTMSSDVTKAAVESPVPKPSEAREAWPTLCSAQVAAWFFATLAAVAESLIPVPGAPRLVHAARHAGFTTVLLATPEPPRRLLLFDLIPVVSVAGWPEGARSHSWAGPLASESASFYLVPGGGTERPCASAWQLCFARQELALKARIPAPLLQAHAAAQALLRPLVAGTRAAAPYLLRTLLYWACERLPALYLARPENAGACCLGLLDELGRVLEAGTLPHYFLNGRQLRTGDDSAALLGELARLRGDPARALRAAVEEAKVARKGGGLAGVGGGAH
UniProt Q8NHG7: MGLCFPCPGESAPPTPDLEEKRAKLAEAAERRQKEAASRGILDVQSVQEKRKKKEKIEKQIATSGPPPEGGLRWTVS
UniProt Q8NEZ5: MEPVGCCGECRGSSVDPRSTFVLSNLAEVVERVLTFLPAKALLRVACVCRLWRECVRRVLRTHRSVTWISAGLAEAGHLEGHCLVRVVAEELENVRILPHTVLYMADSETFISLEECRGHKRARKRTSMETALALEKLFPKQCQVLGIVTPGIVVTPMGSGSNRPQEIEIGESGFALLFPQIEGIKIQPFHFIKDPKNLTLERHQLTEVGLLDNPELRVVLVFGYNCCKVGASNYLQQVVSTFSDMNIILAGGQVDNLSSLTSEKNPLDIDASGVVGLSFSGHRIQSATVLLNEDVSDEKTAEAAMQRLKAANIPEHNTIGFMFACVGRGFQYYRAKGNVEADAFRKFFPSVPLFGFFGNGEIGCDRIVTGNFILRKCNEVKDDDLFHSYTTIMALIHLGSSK
UniProt Q8N2G8: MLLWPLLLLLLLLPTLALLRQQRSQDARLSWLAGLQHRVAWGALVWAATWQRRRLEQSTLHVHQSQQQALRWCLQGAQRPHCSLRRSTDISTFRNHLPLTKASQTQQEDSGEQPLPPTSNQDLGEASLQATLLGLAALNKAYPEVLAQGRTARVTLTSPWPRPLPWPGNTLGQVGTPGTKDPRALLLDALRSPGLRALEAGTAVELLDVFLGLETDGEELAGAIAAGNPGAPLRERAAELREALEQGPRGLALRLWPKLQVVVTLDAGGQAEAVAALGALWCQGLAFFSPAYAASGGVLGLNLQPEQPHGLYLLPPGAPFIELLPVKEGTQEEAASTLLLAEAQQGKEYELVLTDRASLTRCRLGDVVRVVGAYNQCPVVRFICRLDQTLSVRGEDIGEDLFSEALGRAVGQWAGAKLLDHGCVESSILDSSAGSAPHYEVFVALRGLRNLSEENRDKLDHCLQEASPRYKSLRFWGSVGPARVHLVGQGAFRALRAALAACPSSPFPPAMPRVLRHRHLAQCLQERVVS
UniProt Q8N4Y2: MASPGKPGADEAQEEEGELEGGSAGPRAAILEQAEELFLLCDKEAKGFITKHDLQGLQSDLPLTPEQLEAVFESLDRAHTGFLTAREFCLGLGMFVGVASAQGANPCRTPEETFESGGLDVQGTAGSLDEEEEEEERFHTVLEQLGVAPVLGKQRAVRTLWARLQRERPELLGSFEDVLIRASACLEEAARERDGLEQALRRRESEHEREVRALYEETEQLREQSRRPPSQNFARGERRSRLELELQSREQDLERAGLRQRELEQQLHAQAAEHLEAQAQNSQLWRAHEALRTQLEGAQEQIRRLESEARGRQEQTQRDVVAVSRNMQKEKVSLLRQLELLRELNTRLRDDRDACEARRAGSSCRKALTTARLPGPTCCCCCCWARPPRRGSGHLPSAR
UniProt Q8N9E0: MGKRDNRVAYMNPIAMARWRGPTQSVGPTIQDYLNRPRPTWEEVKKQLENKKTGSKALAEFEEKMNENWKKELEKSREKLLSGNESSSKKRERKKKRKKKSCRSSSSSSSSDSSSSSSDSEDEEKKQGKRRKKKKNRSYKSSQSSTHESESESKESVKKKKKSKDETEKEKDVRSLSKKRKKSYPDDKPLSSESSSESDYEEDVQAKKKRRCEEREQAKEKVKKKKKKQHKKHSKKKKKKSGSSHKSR
UniProt Q8ND90: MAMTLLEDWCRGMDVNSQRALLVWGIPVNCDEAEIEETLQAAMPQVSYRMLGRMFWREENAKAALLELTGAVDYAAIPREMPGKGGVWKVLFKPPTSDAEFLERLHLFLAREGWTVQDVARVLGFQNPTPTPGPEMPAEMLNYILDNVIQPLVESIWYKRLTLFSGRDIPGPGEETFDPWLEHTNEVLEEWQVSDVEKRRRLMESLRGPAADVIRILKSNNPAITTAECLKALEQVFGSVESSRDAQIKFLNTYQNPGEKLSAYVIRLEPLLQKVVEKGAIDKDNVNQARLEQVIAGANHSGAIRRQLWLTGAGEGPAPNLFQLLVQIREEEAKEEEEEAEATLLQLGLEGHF

compound: Cc1nc(Nc2ncc(C(=O)Nc3c(C)cccc3Cl)s2)cc(N2CCN(CCO)CC2)n1 [dasatinib]; assay: log2 fold change of tryptic peptide abundance, ligand vs vehicle (limited proteolysis) (log2 ratio); higher = more trypsin-susceptible (destabilized); conditions: ligand concentration: 5 uM; sample: K562 cleared lysate

Target | log2 fold change
USP38 (peptide sequence: ILEGLVSSSHPLPLKR, peptide start residue: 4) (UniProt Q8NB14) | -0.209
UniProt Q8N4J0 (peptide sequence: STEEEEERLER, peptide start residue: 53) | -0.11
TMEM102 (peptide sequence: AAVESPVPKPSEAR, peptide start residue: 242) (UniProt Q8N9M5) | 0.0295
SVIP (peptide sequence: GILDVQSVQEK, peptide start residue: 40) (UniProt Q8NHG7) | -0.155
FBXO22 (peptide sequence: IVTGNFILR, peptide start residue: 368) (UniProt Q8NEZ5) | -0.0859
GHDC (peptide sequence: STDISTFR, peptide start residue: 87) (UniProt Q8N2G8) | -0.218
CRACR2B (peptide sequence: TQLEGAQEQIR, peptide start residue: 293) (UniProt Q8N4Y2) | 0.256
UniProt Q8N9E0 (peptide sequence: MNENWKK, peptide start residue: 65) | -0.113
UniProt Q8ND90 (peptide sequence: LEQVIAGANHSGAIR, peptide start residue: 291) | -0.162

Taken from above.
TMEM102 (peptide sequence: AAVESPVPKPSEAR, peptide start residue: 242) (UniProt Q8N9M5) | log2 fold change: 0.0295
UniProt Q8ND90 (peptide sequence: LEQVIAGANHSGAIR, peptide start residue: 291) | log2 fold change: -0.162
